Values are the deposited “Percent Effect”, in %. How 0% and 100% were set is not recorded. Most values in the screen are low, and negative values occur. The compounds are a random part of those screened.

By UniProt entry, the sequences of proteins in these tests, tags left out.
UniProt P9WFT3, whole entry: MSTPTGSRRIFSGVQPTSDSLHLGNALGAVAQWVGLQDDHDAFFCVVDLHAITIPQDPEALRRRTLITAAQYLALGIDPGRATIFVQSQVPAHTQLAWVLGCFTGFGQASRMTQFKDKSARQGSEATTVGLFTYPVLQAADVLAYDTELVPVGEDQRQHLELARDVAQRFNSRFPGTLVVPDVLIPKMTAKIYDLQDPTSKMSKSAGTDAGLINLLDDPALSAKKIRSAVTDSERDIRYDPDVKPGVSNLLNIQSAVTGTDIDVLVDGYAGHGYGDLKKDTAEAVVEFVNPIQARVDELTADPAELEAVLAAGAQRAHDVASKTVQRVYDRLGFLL

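Tryptophan-tRNA ligase, Mycobacterium tuberculosis (UniProt P9WFT3). Enzyme assay of tryptophanyl-tRNA synthetase; the read-out is not stated. Compounds at 10 µM. Direction is not recorded; retested compounds ran higher, which suggests that high means inhibition. Of about 65,000 compounds tested this way, about 64 (0.098%) reached 50% or more in at least one test.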

Compound: Cn1cc(C(=O)N2CCCN(c3cccnn3)CC2)c2ccccc21
effect: -0.1564%

Compound: Cc1nc(C)c(C(=O)N2Cc3cc(F)ccc3CC2C)o1 (configuration not stated)
effect: -2.562%

Compound: CN(Cc1cccnc1)C[C@H]1CC[C@@H](Cc2ccc3c(cnn3C)c2)O1
effect: -5.21%

Compound: O=C(NCCc1nnc2n1CCCCC2)N1CCC2(CCOC2)C1 (configuration not stated)
effect: -3.073%

Compound: CCOc1ccc(CNC(=O)c2cnc(OC)nc2)cc1
effect: 1.656%

Compound: Cn1ncc(N2CCC(CNC3CC(C)(C)CC(C)(C)C3)C2)cc1=O (configuration not stated)
effect: 4.425%

Compound: CC(C)(C)N1CC(C(=O)N2CC(Oc3ccc(F)cc3)C2)CC1=O (configuration not stated)
effect: -2.429%

Compound: CC(C(=O)N1CCN(c2cnccn2)CC1)n1cncn1 (configuration not stated)
effect: -2.827%

Compound: CC(C)c1nccn1CCCNC(=O)c1ccc(-c2cccnc2)nc1
effect: -0.6054%

Compound: Cc1ccsc1C(=O)N1CC[C@@H](N(C)C)[C@@H]1Cc1cnn(C)c1
effect: 1.876%

Compound: O=C(NCCCN1CCOCC1)c1ccn(COc2ccc(F)cc2)n1
effect: -0.2591%

Compound: Cc1cc(NC(=O)NCC(C)N2CCc3ccccc32)no1 (configuration not stated)
effect: -3.302%

Compound: COc1ccc(C)cc1S(=O)(=O)N[C@H]1CN(C(C)=O)C[C@@H]1C1CC1
effect: 0.9762%

Compound: c1csc(N2CCCN(c3nccn4cnnc34)CC2)n1
effect: -4.078%

Compound: Cn1ccnc1CNC(=O)CC1CCCCO1 (configuration not stated)
effect: 1.11%

Compound: CC(C)N(CCNCc1ccc(C#N)cc1)C1CC1
effect: 0.3749%

Compound: CCc1cn[nH]c1C1CCCN(C(=O)c2noc(C)c2COC)C1 (configuration not stated)
effect: -2.385%

Compound: O=C(N1CCCC1)N1CCCC2(CCN(c3ccsc3)C2=O)C1 (configuration not stated)
effect: -0.6823%

Compound: COc1ccc(C(=O)N2CCCC2c2ccco2)cc1OC (configuration not stated)
effect: -4.961%

Compound: CC(Cn1cccn1)NC(=O)N(C)Cc1ccc(Cl)s1 (configuration not stated)
effect: -0.07868%

Compound: CCOCC1CCN(C(=O)C(c2ccc(F)cc2)N(C)C)CC1 (configuration not stated)
effect: -1.098%

Compound: Cc1cc(C(=O)N2CCCC3(COCCN(CCN(C)C)C3)C2)no1 (configuration not stated)
effect: 1.953%

Compound: O=C(CCS(=O)(=O)C1CCCC1)NCCc1cccnc1
effect: -10.84%

Compound: Cc1oc(-c2ccc(F)cc2F)nc1CN1C[C@@H](C)O[C@@H](C)C1
effect: 10.15%

Compound: CC1Oc2c(cccc2C(=O)N2CCCCCC2)NC1=O (configuration not stated)
effect: 4.612%

Compound: CN(Cc1ccncc1)C1COC2(CCN(c3ncc(F)cn3)CC2)C1 (configuration not stated)
effect: -6.132%

Compound: O=C1CC(c2cccnc2)C2(CCN(C(=O)c3ccncc3)CC2)N1 (configuration not stated)
effect: 3.226%

Compound: Fc1ccc(C(CNc2ccncn2)N2CCCCC2)cc1 (configuration not stated)
effect: -0.3236%

Compound: Cc1cc(N2CCCN(C(C(=O)O)c3cccc(C)c3F)CC2)ccn1 (configuration not stated)
effect: 0.1651%

Compound: Cc1ccc(Cl)cc1-n1nnnc1C1(N2CCCC2)CCCCC1
effect: 3.329%

Compound: CNc1ccnc(NCCSc2nccn2C)n1
effect: -0.08944%

Compound: Cc1cnn(CCCn2ncc(N3CCC(CN)C3)cc2=O)c1 (configuration not stated)
effect: 0.4472%

Compound: CC(C)(C)NC(=O)CNC(=O)Nc1cc(-c2ccccc2)ns1
effect: 1.356%

Compound: CC(C)C(C#N)N1CCN(C(=O)c2cc(-c3ccccn3)no2)CC1 (configuration not stated)
effect: 0.2742%

Compound: CN(CC(=O)N1CCCCC1Cn1cccn1)Cc1ccccc1 (configuration not stated)
effect: 14.9%

Compound: CCC(=O)NCC(=O)NCC1(c2c(F)cccc2F)CCCC1
effect: 1.49%

Compound: O=C(NCCCN1CCCC1=O)Nc1ccc(Br)cc1Cl
effect: -0.603%

Compound: Cc1ccc(CCN2C(=O)CC[C@H]3CN(Cc4cnn(C)c4)CC[C@H]32)o1
effect: -2.424%

Compound: Cc1ccnn1CC(=O)N1CCCN(C2Cc3ccccc3C2)CC1
effect: -2.974%

Compound: Cc1nc(C)n(CC2CCCCN2c2ncnc3ccsc23)n1 (configuration not stated)
effect: -2.508%

Compound: CN(CCNC(=O)c1cnc(-c2ccccc2)nc1)S(C)(=O)=O
effect: -4.992%

Compound: COc1c(C2CCCN2C(=O)c2ccc(C#N)c(C)n2)c(C)nn1C (configuration not stated)
effect: -4.856%

Compound: Cc1ccc([C@@H]2CN(S(=O)(=O)c3cc(C)ccc3F)C[C@H]2N(C)C)cc1
effect: -1.847%

Compound: Cc1c[nH]cc1C(=O)N1CCN(Cc2nc(C(C)C)no2)CC1
effect: -0.4859%

Compound: CCCNC(=O)COc1cc(C)c2c(C)nn(-c3ccccc3)c2n1
effect: -1.357%

Compound: O=C(c1cc(=O)[nH][nH]1)N1CCCC2(CCC(=O)N(C3CCCC3)C2)C1 (configuration not stated)
effect: 2.015%

Compound: c1ccc(-c2nnc(CNC3CCCN(c4cccnn4)C3)o2)cc1 (configuration not stated)
effect: -2.941%

Compound: Cc1ncc2c(n1)CCN(Cc1ncc(C(C)(C)C)o1)C2
effect: 4.161%

Compound: CC1CN(C)c2ccccc2CN1C(=O)c1cc[nH]c(=O)c1 (configuration not stated)
effect: 0.7048%

Compound: COc1ccc(N(C)Cc2nc3c(cnn3C)c(=O)[nH]2)cc1OC
effect: -2.173%

Compound: Cc1nc(C)n(C2CCCN(C(=O)c3ccc(F)cc3F)C2)n1 (configuration not stated)
effect: -5.066%

Compound: O=C(O)c1cn2cc(C(F)(F)F)ccc2n1
effect: 0.5718%

Compound: Fc1cnc(N2CCO[C@H]3CN(CC4CCC4)C[C@H]32)nc1
effect: 6.821%

Compound: Cc1ccc(C(=O)N2Cc3c(CN(C)C)nn(C)c3C2)cc1C
effect: 3.434%

The first 6 entries again:

{"compound": "Cn1cc(C(=O)N2CCCN(c3cccnn3)CC2)c2ccccc21", "effect": -0.1564}
{"compound": "Cc1nc(C)c(C(=O)N2Cc3cc(F)ccc3CC2C)o1", "stereo": "configuration not stated", "effect": -2.562}
{"compound": "CN(Cc1cccnc1)C[C@H]1CC[C@@H](Cc2ccc3c(cnn3C)c2)O1", "effect": -5.21}
{"compound": "O=C(NCCc1nnc2n1CCCCC2)N1CCC2(CCOC2)C1", "stereo": "configuration not stated", "effect": -3.073}
{"compound": "CCOc1ccc(CNC(=O)c2cnc(OC)nc2)cc1", "effect": 1.656}
{"compound": "Cn1ncc(N2CCC(CNC3CC(C)(C)CC(C)(C)C3)C2)cc1=O", "stereo": "configuration not stated", "effect": 4.425}

Measurements from “University of Dundee, Small-Polar-MMV Screening Library” (2021), ChEMBL document CHEMBL3988442.